## Library compounds against nucleic acid targets

From ROBIN, a set of small-molecule microarray screens (doi:10.1002/anie.202211358).

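Each compound is printed as two spots on a slide made to bind it covalently, so it has no test concentration; the read-out is fluorescence of the bound, labelled oligonucleotide. For the PreQ1, TPP and SAM-II riboswitches the laboratory earlier reported (doi:10.1038/s41467-019-09493-3) 1 µM RNA, 2 h, and a rule that included a mean Z-score above 3 (spot signal-to-noise against the whole library), a score well above that on a control array, and duplicate spots agreeing (coefficient of variation under 100). The data file gives only the calls; its cut-offs may differ, and compounds hitting several targets are kept. The calls come from the array alone, and fixing a compound to the slide can hide its binding.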 A compound is marked 1 if it was called a hit and 0 if it was screened but was not. The compounds are a random part of those screened. A dash means that no call is listed here.

Targets, with sequences 5′ to 3′:
PreQ1: PreQ1 riboswitch RNA pseudoknot, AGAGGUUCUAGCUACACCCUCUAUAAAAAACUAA. From B. subtilis. Hit rate about 0.7% of about 24,000 compounds.
SAM-II: SAM-II riboswitch RNA pseudoknot, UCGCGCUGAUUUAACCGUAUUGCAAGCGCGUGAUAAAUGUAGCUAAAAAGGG. Hit rate about 1% of about 21,000 compounds.
TPP: TPP riboswitch RNA three-way junction, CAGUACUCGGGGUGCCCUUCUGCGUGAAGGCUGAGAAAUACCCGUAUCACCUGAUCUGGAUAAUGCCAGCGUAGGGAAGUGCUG. Hit rate about 0.7% of about 24,000 compounds.

structure,PreQ1,SAM-II,TPP
CCC(CO)NCc1ccc(-c2ccc(Cl)cc2)o1 (stereo not drawn),0,-,0
Cc1cc(C)n(Cc2ccc(C(=O)NCC(O)c3ccncc3)cc2)n1 (stereo not drawn),0,0,0
O=C(O)c1cn(-c2ccc(F)cc2)c2cc(N3CCNCC3)c(F)cc2c1=O,0,0,0
Nc1ncccc1CN1C[C@H](NC(=O)C2CCOCC2)[C@@H](C2CC2)C1,0,0,0
Cc1ccccc1-c1coc(-c2cccc(N)c2)n1,0,0,0
Cc1nn(C)c(C)c1NC(=O)NCC(O)c1ccco1 (stereo not drawn),0,0,0
O=C(NC1=CNNC1=C1N=c2ccc(CN3CCOCC3)cc2=N1)NC1CC1,0,0,0
C=CCSCC(=O)N1CCC2(CCNCC2)CC1,0,0,0
Cc1oc(-c2cccc(C(F)(F)F)c2)nc1CN1C[C@H](OC(C)C)[C@@H](O)C1,0,0,0
O=C(N[C@@H]1c2ccccc2C[C@@H]1O)c1cnnn1-c1ccccc1,0,0,0
O=C(CCc1ccc(O)cc1)N[C@@H]1CCNC[C@H]1O,0,0,0
Cc1nnc(CCN2CC3(CCNCC3)CCC2=O)[nH]1,0,0,0
Cc1nc(NCC(C)C)c2sc3nc4c(cc3c2n1)COC(C)(C)C4,0,0,0
Oc1c(Cl)cc(Cl)cc1C1Nc2ccccc2-n2cccc21 (stereo not drawn),0,0,0
CCCCc1nc(CNCCc2c(C)[nH]c3ccc(OC)cc23)c[nH]1,0,0,0
CC(C)CNC1CC(=O)N(c2ccc(Cl)cc2)C1=O (stereo not drawn),0,0,0
CCCCc1ccc(-n2nc3cc(C)c(N)cc3n2)cc1,0,0,0
O=C(NCCCO)c1nnc(Cc2ccc3c(c2)OCO3)o1,0,0,0
C=CCc1ccc(OCC(O)CN2CCC(Cc3ccccc3)CC2)c(OC)c1.Cl (stereo not drawn),0,1,0
Nc1ccc2oc(=O)c3c(c2c1)CCCN3,0,0,0
Cc1c(C#N)c(N)n(CCN2CCOCC2)c1C,0,0,0
COc1ccccc1-c1cc2nc(C)cc(NCCC(C)C)n2n1,0,-,0
CCn1cc(C(=O)O)c(=O)c2ccc(C)nc21,0,0,0
O=C1c2ccc(Oc3ccc([N+](=O)[O-])cc3)cc2C(=O)N1CCCO,0,0,0
COc1ccc(/N=C\c2c(O)ccc3c2oc2cc(Cl)c(O)c(Cl)c23)cc1,0,0,0
CN1CCc2ccccc2C1Cc1ccccc1NC(=O)c1sc2ccccc2c1Cl (stereo not drawn),0,0,0
COc1cc(Cl)c(C)cc1Nc1nc(-c2ccc(OC)c(OC)c2)no1,0,-,0
CC(=O)C1=C(C)OC(N)=C(C#N)C1c1ccccc1 (stereo not drawn),0,0,0
O=C(Cn1cccc1)N1CCc2ncnc(NCC(O)CO)c2CC1 (stereo not drawn),0,0,0
N#Cc1cnc(-c2ccc(F)cc2Cl)nc1N,0,0,0
CSc1nc(C)cc(NCc2cccnc2)n1,0,-,0
CC(C=CC(=O)NO)=C[C@@H](C)C(=O)c1ccc(N(C)C)cc1,0,0,0
COc1ccc(-n2c(N)c(C#N)c(C#N)c2-c2cccc([N+](=O)[O-])c2)cc1,0,0,0
COc1cc(C2C(C#N)=C(N)Oc3cc(C)oc(=O)c32)cc2c1OCO2 (stereo not drawn),0,0,0
CCc1ccccc1NC1OC(=O)c2ccccc21 (stereo not drawn),0,0,0
COC(=O)N[C@H](C(=O)N1CCC[C@@H]1c1ncc(-c2ccc(-c3ccc(-c4cnc([C@@H]5CCCN5C(=O)[C@@H](NC(=O)OC)C(C)C)[nH]4)cc3)cc2)[nH]1)C(C)C,0,0,0
COc1ccccc1CCN[C@H]1CS(=O)(=O)C[C@@H]1S(=O)(=O)c1ccccc1,0,-,0
C[C@H]1C[C@H]2[C@@H]3CCC4=CC(=O)C=C[C@]4(C)[C@H]3C(=O)C[C@]2(C)[C@@]1(O)C(=O)CO,0,0,0
c1sc(N2CCCC2)nc1CNC1CCOC2(CCOCC2)C1 (stereo not drawn),0,0,0
Cn1nccc1C(=O)N1CC[C@@H](c2ccc3ccccc3c2)[C@H](O)C1,0,0,0
CC(C)(C)c1ccc(Cn2c(CO)nc3ccccc32)cc1,0,0,0

For reference, 4 entries once more:

structure	PreQ1	SAM-II	TPP
Cc1oc(-c2cccc(C(F)(F)F)c2)nc1CN1C[C@H](OC(C)C)[C@@H](O)C1	0	0	0
COc1ccc(/N=C\c2c(O)ccc3c2oc2cc(Cl)c(O)c(Cl)c23)cc1	0	0	0
Cc1c(C#N)c(N)n(CCN2CCOCC2)c1C	0	0	0
Cc1nc(NCC(C)C)c2sc3nc4c(cc3c2n1)COC(C)(C)C4	0	0	0